PubChem BioAssay AID256 (DTP/NCI, 2004)
The list shows only some results of the screen, not a fair sample: it gathers some chemical classes. Other doses and runs of a compound may be missing. T/C gives the treated animals as a percentage of the vehicle group. Some entries give survivors of the animals treated and no T/C: the source files T/C as zero there, which appears to mark a toxic dose or a test without result, not a measured value. Some doses without a T/C left all or most animals alive at the check, yet need not have been tolerated: survival well below the control is almost never listed, so the zero probably covers shortened survival too. Counts of survivors are from the toxicity check (mostly the fifth day) where no day follows; animals may have died later. Schedules are NCI's codes, taken here to give the interval after Q, in days (D) or hours (H), and the number of doses after X. For survival time, this PubChem deposit counts one and a half times the control or more as active, and values a quarter to a half above the control carry no call in these data; other NCI protocols may use other cut-offs. Some doses were run more than once; the values are given in rising order. Some T/C values carry the count of animals alive at the toxicity check (mostly the fifth day); where neither a count nor a note follows, no animal had died by that day.

Test system: CD2F1 mice, L1210 leukemia ip, survival T/C
Experiment: NCI In Vivo Anticancer Drug Screen. Data for tumor model L1210 Leukemia (intraperitoneal) in CD2F1 (CDF1) mice
Conditions: T/C endpoint: mean survival time, higher T/C = longer survival
How it was run: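 Vehicle-treated tumor-bearing mice served as controls (C) for compound-treated mice (T). Reported figure is T divided by C.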

With `C[N+](C)(C)Cc1ccccc1.F[P-](F)(F)(F)(F)F` the T/C (dose: 5.0 mg/kg/injection, schedule: Q01DX009 (ip), vehicle: saline with Tween-80) was 95 % of control, the T/C (dose: 5.0 mg/kg/injection, schedule: Q04DX003 (ip), vehicle: saline) was 94 % of control and the T/C (dose: 10.0 mg/kg/injection, schedule: Q01DX009 (ip), vehicle: saline with Tween-80) was 98 % of control. For the same compound, the T/C (dose: 10.0 mg/kg/injection, schedule: Q04DX003 (ip), vehicle: saline) was 94 % of control, the T/C (dose: 20.0 mg/kg/injection, schedule: Q01DX009 (ip), vehicle: saline with Tween-80) was 91 % of control and the T/C (dose: 20.0 mg/kg/injection, schedule: Q04DX003 (ip), vehicle: saline) was 94 % of control. For the same compound, the survivor count (dose: 100.0 mg/kg/injection, schedule: Q04DX003 (ip), vehicle: saline with Tween-80) was 0 of 6, the survivor count (dose: 200.0 mg/kg/injection, schedule: Q04DX003 (ip), vehicle: saline with Tween-80) was 0 of 6 and the survivor count (dose: 400.0 mg/kg/injection, schedule: Q04DX003 (ip), vehicle: saline with Tween-80) was 0 of 6.

For `N#CCCOP(=O)(N(CCCl)CCCl)N1CC1` (centres undefined), the T/C (dose: 7.8 mg/kg/injection, schedule: Q01DX001 (ip), vehicle: Klucel (hydroxypropylcellulose) (HPC)) was 90 % of control, the T/C (dose: 12.5 mg/kg/injection, schedule: Q01DX009 (ip), vehicle: Klucel (hydroxypropylcellulose) (HPC)) was 93 % of control and the T/C (dose: 15.6 mg/kg/injection, schedule: Q01DX001 (ip), vehicle: Klucel (hydroxypropylcellulose) (HPC)) was 96 % of control. For the same compound, the T/C (dose: 25.0 mg/kg/injection, schedule: Q01DX009 (ip), vehicle: Klucel (hydroxypropylcellulose) (HPC)) was 101 % of control, the T/C (dose: 31.3 mg/kg/injection, schedule: Q01DX001 (ip), vehicle: Klucel (hydroxypropylcellulose) (HPC)) was 95 % of control and the T/C (dose: 50.0 mg/kg/injection, schedule: Q01DX009 (ip), vehicle: Klucel (hydroxypropylcellulose) (HPC)) was 108 % of control. The T/C (dose: 62.5 mg/kg/injection, schedule: Q01DX001 (ip), vehicle: Klucel (hydroxypropylcellulose) (HPC)) was 102 % of control, the T/C (dose: 100.0 mg/kg/injection, schedule: Q01DX009 (ip), vehicle: Klucel (hydroxypropylcellulose) (HPC)) was 119 % of control and the T/C (dose: 125.0 mg/kg/injection, schedule: Q01DX001 (ip), vehicle: Klucel (hydroxypropylcellulose) (HPC)) was 104 and 120 % of control. For the same compound, the T/C (dose: 200.0 mg/kg/injection, schedule: Q01DX009 (ip), vehicle: Klucel (hydroxypropylcellulose) (HPC)) was 121 % of control [4 of 6 alive], the T/C (dose: 200.0 mg/kg/injection, schedule: Q01DX009 (ip), vehicle: water) was 86 % of control and the T/C (dose: 250.0 mg/kg/injection, schedule: Q01DX001 (ip), vehicle: Klucel (hydroxypropylcellulose) (HPC)) was 113 % of control. For the same compound, the survivor count (dose: 300.0 mg/kg/injection, schedule: Q01DX009 (ip), vehicle: water) was 6 of 6, the T/C (dose: 400.0 mg/kg/injection, schedule: Q01DX009 (ip), vehicle: water) was 102 % of control and the survivor count (dose: 500.0 mg/kg/injection, schedule: Q01DX001 (ip), vehicle: Klucel (hydroxypropylcellulose) (HPC)) was 0 of 6. The survivor count (dose: 1000.0 mg/kg/injection, schedule: Q01DX001 (ip), vehicle: Klucel (hydroxypropylcellulose) (HPC)) was 0 of 6.

With `O=P(Cl)(Cl)C(Cl)c1ccccc1` (centres undefined) the T/C (dose: 75.0 mg/kg/injection, schedule: Q01DX001 (ip), vehicle: saline) was 97 % of control, the T/C (dose: 75.0 mg/kg/injection, schedule: Q01DX009 (ip), vehicle: saline) was 100 % of control and the T/C (dose: 75.0 mg/kg/injection, schedule: Q04DX003 (ip), vehicle: saline) was 108 % of control. For the same compound, the T/C (dose: 150.0 mg/kg/injection, schedule: Q01DX001 (ip), vehicle: saline) was 97 % of control, the T/C (dose: 150.0 mg/kg/injection, schedule: Q01DX009 (ip), vehicle: saline) was 97 % of control and the T/C (dose: 150.0 mg/kg/injection, schedule: Q04DX003 (ip), vehicle: saline) was 104 % of control. The T/C (dose: 300.0 mg/kg/injection, schedule: Q01DX001 (ip), vehicle: saline) was 88 % of control, the T/C (dose: 300.0 mg/kg/injection, schedule: Q01DX009 (ip), vehicle: saline) was 94 % of control and the T/C (dose: 300.0 mg/kg/injection, schedule: Q04DX003 (ip), vehicle: saline) was 106 % of control.
